According to article PMC12816148:
Results are given in words; binding and its absence hold for the method and conditions named. In cells and extracts the contact can be indirect. These calls come from enrichment with a bait or labelling near it, and not all partners need be listed.

Protein sequences, listed by entry. Tags and fused reporters are not part of them. Lines headed by an entry give the natural chain unless they say otherwise; changes in a name come on top.
UniProt Q383D5: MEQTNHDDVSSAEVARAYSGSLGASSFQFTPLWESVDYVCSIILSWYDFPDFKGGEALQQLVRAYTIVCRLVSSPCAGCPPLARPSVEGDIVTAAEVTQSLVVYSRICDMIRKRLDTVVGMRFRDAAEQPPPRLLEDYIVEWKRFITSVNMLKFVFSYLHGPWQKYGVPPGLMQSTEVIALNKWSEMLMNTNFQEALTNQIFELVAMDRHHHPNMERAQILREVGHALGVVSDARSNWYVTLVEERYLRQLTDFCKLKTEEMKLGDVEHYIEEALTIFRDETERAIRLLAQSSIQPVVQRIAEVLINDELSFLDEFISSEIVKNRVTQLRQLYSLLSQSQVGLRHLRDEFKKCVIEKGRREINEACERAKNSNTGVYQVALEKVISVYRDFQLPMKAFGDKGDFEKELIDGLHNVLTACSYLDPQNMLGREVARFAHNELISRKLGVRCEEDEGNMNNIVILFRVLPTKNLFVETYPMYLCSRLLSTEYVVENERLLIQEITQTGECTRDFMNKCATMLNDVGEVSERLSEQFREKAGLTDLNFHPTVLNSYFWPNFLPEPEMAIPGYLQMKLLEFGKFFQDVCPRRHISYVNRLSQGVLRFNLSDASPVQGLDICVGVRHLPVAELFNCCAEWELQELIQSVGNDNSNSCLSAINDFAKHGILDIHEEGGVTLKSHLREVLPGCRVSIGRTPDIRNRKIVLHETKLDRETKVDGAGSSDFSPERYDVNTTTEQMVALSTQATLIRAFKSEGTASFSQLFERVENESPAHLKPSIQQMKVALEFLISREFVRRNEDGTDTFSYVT
UniProt Q57VF8: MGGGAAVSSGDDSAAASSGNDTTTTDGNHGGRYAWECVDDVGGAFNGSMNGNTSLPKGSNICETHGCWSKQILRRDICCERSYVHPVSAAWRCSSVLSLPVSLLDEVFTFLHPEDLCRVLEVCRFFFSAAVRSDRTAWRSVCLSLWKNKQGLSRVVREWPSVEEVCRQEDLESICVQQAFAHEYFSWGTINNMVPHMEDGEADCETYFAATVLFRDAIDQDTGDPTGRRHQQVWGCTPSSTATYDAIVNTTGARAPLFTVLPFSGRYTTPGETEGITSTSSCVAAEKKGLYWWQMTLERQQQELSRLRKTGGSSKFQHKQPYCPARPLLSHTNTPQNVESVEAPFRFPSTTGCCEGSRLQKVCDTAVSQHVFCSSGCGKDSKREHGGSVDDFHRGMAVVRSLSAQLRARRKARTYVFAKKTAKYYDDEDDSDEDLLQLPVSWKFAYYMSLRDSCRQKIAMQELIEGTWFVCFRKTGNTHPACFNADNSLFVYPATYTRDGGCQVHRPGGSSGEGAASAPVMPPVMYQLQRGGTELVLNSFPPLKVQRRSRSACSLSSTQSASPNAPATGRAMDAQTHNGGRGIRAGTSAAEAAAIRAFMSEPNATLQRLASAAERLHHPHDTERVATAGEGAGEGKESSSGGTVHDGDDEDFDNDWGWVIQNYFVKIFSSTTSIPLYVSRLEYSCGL
UniProt Q38CJ7: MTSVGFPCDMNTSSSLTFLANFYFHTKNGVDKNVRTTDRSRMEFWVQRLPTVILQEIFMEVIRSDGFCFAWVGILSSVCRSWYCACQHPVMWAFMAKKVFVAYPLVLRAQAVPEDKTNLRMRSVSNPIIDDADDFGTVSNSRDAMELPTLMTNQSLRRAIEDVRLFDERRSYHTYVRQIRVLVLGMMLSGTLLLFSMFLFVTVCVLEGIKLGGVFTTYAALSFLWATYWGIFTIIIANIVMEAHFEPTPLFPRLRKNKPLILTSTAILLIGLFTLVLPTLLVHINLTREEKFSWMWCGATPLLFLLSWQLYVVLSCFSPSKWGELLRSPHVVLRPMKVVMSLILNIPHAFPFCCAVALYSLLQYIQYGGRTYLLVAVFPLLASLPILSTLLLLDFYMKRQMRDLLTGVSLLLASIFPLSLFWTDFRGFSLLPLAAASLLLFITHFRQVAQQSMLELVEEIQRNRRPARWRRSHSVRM
UniProt Q389D6: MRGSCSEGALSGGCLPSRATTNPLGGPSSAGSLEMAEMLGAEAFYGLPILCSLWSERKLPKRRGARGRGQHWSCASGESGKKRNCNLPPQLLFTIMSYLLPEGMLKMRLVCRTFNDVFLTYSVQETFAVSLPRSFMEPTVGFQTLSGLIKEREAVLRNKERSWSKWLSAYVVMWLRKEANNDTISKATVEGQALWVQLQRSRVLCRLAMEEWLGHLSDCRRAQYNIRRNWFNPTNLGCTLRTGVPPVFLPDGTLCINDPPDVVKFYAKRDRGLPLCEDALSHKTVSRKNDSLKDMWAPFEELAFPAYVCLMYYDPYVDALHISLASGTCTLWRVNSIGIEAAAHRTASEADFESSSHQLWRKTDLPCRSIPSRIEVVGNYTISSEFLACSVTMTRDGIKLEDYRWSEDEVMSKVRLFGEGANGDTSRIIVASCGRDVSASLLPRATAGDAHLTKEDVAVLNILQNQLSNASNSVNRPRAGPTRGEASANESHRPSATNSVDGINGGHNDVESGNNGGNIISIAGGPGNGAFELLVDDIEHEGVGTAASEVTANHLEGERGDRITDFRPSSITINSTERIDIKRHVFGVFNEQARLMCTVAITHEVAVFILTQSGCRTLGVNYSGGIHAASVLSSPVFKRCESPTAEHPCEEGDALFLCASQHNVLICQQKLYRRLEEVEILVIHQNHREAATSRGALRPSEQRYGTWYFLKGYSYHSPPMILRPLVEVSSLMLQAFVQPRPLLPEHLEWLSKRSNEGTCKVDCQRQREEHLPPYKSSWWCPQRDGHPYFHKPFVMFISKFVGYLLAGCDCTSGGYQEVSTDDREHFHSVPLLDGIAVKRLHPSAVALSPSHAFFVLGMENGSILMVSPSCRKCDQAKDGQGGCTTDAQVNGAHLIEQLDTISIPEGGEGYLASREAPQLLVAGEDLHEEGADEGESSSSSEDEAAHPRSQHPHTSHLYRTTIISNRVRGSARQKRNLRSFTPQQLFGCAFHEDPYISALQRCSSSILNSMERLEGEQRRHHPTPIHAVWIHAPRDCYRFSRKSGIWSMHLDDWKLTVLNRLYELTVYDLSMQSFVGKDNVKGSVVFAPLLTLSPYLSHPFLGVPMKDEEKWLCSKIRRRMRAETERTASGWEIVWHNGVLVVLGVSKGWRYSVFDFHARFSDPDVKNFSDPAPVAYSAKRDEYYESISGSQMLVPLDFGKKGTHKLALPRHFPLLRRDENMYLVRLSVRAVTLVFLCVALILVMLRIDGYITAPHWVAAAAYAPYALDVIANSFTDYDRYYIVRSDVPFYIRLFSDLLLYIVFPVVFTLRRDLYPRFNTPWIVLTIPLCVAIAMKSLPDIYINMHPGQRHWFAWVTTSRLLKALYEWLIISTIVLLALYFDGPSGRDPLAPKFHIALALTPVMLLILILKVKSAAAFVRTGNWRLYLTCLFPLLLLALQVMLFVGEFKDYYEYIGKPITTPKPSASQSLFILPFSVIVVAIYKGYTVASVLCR
UniProt Q387E2: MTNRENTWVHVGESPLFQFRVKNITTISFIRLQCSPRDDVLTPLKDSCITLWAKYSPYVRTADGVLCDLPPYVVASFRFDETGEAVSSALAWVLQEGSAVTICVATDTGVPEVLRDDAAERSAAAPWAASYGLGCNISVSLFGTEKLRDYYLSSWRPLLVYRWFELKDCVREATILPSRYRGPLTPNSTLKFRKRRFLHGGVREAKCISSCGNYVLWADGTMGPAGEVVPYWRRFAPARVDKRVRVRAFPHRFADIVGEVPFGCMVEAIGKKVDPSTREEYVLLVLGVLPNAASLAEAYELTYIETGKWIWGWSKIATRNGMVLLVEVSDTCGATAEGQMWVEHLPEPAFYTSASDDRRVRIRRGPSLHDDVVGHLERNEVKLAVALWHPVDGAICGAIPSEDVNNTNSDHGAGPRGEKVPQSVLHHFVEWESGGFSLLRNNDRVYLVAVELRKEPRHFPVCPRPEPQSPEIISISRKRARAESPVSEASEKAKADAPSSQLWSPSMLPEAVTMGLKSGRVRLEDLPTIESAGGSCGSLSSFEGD
UniProt Q587A2: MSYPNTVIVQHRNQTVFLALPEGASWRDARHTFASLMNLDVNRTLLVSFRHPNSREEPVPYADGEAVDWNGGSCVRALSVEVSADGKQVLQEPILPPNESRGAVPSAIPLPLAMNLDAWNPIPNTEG
UniProt Q385F6: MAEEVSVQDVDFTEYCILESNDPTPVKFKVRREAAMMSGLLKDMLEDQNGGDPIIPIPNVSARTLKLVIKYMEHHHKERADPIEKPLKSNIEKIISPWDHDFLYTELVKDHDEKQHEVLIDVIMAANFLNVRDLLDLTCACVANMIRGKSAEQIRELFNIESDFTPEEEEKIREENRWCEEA
UniProt Q382K3: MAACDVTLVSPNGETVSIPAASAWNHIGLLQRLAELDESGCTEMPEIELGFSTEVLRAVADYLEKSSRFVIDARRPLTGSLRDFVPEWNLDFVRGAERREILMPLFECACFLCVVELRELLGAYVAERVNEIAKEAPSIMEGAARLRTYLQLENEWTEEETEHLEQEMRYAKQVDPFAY
UniProt Q57YL5: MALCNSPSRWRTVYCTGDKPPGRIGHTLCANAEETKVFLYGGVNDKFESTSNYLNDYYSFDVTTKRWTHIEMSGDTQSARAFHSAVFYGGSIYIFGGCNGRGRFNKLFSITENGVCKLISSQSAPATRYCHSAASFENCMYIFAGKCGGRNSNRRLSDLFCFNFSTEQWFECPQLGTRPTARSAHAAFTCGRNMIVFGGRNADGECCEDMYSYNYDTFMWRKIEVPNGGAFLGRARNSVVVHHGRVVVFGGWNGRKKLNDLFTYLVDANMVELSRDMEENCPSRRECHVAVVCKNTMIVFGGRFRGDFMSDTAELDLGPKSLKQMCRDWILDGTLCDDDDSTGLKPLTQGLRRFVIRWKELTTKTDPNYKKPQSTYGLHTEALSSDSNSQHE
UniProt Q585R1: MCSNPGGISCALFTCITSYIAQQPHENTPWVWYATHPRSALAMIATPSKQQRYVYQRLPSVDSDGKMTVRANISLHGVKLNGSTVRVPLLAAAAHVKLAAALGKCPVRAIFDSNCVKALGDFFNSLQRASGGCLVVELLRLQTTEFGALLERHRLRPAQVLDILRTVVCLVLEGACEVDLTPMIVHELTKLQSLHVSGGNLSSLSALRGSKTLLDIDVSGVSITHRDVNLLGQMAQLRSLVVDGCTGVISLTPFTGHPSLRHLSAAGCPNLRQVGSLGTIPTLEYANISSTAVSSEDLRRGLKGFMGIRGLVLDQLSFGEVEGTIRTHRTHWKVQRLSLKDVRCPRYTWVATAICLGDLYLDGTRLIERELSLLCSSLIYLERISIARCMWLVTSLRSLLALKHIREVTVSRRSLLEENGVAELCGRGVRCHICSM
UniProt Q389V8: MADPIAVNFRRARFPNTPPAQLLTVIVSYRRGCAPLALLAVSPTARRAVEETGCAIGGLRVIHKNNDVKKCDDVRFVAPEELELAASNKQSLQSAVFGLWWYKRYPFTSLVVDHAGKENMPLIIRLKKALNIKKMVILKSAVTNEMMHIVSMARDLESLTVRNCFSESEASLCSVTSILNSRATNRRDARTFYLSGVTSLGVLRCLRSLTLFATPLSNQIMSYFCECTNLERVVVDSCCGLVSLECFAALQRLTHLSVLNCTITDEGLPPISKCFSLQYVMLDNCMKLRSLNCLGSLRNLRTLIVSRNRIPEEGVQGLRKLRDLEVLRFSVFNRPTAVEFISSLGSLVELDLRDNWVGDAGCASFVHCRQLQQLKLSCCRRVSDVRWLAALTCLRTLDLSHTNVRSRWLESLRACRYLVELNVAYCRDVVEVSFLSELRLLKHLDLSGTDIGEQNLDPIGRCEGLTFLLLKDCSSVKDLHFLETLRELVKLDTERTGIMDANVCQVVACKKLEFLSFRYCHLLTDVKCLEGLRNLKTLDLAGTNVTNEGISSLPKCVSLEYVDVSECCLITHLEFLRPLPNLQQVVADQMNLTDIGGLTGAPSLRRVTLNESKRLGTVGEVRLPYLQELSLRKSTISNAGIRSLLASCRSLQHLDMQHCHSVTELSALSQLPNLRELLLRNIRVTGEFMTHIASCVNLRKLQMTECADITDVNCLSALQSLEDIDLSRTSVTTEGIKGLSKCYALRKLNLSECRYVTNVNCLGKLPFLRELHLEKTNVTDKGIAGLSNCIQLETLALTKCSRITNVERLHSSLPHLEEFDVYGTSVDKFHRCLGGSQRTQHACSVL
UniProt Q383X4: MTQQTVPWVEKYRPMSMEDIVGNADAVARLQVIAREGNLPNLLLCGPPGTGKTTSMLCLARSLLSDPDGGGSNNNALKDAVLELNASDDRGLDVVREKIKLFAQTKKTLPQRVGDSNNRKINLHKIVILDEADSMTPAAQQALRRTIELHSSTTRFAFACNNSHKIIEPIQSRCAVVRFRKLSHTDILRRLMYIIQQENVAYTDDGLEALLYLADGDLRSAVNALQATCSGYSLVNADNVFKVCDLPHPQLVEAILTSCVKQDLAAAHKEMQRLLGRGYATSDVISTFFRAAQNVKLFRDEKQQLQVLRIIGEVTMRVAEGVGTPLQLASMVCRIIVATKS

Experiments:
Assay in all cases: affinity purification with mass spectrometry; 3xHA-tagged cullin captured on anti-HA magnetic beads from cryomilled procyclic T. brucei cell powder; 20 mM HEPES pH 7.4, 250 mM NaCl, 1 mM Mg2Cl, 0.01 mM CaCl2, 0.1% Brij58; 2 h at 4 °C; LC-MSMS, LFQ against untagged parental cells
[1] = target: TbCul-D (Trypanosoma brucei brucei (endogenous in procyclic Lister 427)) (UniProt Q57XW2)
[2] = target: TbCul-A (Trypanosoma brucei brucei (endogenous in procyclic Lister 427)) (UniProt Q57YJ8)
[3] = target: TbCul-E (Trypanosoma brucei brucei (endogenous in procyclic Lister 427)) (UniProt Q383D5)
[4] = target: TbCul-G (Trypanosoma brucei brucei (endogenous in procyclic Lister 427)) (UniProt Q583G1)

## DCAF protein Tb927.8.840 (from UniProt Q57YE7)
[1]
  binding: binds

## DCAF protein Tb927.11.3190 (from UniProt Q386J2)
[1]
  binding: binds

## DDB1 (from UniProt Q586I3)
[1]
  binding: binds

## F-box protein Tb927.4.3000 (from UniProt Q583X7)
[2]
  binding: binds

## F-box protein Tb927.5.700 (from UniProt Q57VF8)
[2]
  binding: binds

## F-box protein Tb927.7.4300 (from UniProt Q57UR0)
[2]
  binding: binds

## F-box protein Tb927.8.1380 (from UniProt Q57VL7)
[2]
  binding: binds

## F-box protein Tb927.10.410 (from UniProt Q38CJ7)
[2]
  binding: binds

## F-box protein Tb927.10.12060 (from UniProt Q389D6)
[2]
  binding: binds

## Kap60 (from UniProt Q583S0)
[1]
  binding: binds

## NOP60 (from UniProt Q387E2)
[1]
  binding: binds

## Tb927.6.4360 (from UniProt Q587A2)
[3]
  binding: binds

## Tb927.11.4280 (from UniProt Q385Y9)
[1]
  binding: binds

## TbRbx1 (from UniProt Q38C61)
[1]
  binding: binds
[3]
  binding: binds
[2]
  binding: binds

## TbSkp-1 (from UniProt Q385F6)
[2]
  binding: binds

## TbSkp-1.3 (from UniProt Q382K3)
[4]
  binding: binds

## flagellar member 2 (FLAM2) (from UniProt Q38AN4)
[4]
  binding: binds

## kelch domain protein Tb927.5.1980 (from UniProt Q57ZR7)
[3]
  binding: binds

## kelch domain protein Tb927.8.6140 (from UniProt Q57YL5)
[3]
  binding: binds

## kelch domain protein Tb927.11.11450 (from UniProt Q383D3)
[3]
  binding: binds

## leucine-rich repeat protein (LRR) Tb927.4.3100 (from UniProt Q583Y7)
[4]
  binding: binds

## leucine-rich repeat protein (LRR) Tb927.6.1490 (from UniProt Q585R1)
[4]
  binding: binds

## leucine-rich repeat protein (LRR) Tb927.10.10190 (from UniProt Q389V8)
[4]
  binding: binds

## nucleolar RNA-binding protein Tb927.8.750 (from UniProt Q57YF6)
[1]
  binding: binds

## protein phosphatase 1 Tb927.4.3620 (from UniProt Q585I8) (enzyme)
[4]
  binding: binds

## protein phosphatase 1 Tb927.4.3640 (from UniProt Q585I6) (enzyme)
[4]
  binding: binds

## replication factor C subunit Tb927.11.9550 (from UniProt Q383X4)
[3]
  binding: binds

## vacuolar protein sorting protein 13 (Vps13) (from UniProt Q57X24)
[4]
  binding: binds
[3]
  binding: binds

B1: kelch domain protein Tb927.1.820 (protein, UniProt Q4GZD6 1-426)
chain: MMSNTTSSGKGPTTFMWNSVPPSGDMPLHGCCHSLANYKDEQLILFGGGALHIIFNDVYCFDLKTSTWSYKETTNSEIVAPRISHSAVVHEDKMYVYGGQDLYMPTRFADVLVLDLITFTWSLIQQQATPAPDGPGDRRLHTAHIYRNCMYVLMGEPCNISNSFWFLDLTTLEWHPVHSSGWFGKPILPLLGHSAQVEGDYLYVFGGYHADSARRNGSPVYNNSLFSYHFPSNTWREVVPSSGPRPSPRYASAMAVIRGRVFIYGGDVDGEVYFDDFWCIDTNIPSSAASQSSSSSSYTTSLVAAPPAASSRWIDITLSCGRGRPSARSGHASAVAQGCLFVVGGELPGDRDVVYYSNRTYRYPLGYLTRLSLVELSSLWLAKCNPANIWMLDTQIPRHVRQLLVRNLNAQDRESTDDMMPCTRVV
[3]
  binding: binds

B2: ornithine decarboxylase (TbODC) (enzyme, UniProt P07805 1-423)
chain: MDIVVNDDLSCRFLEGFNTRDALCKKISMNTCDEGDPFFVADLGDIVRKHETWKKCLPRVTPFYAVKCNDDWRVLGTLAALGTGFDCASNTEIQRVRGIGVPPEKIIYANPCKQISHIRYARDSGVDVMTFDCVDELEKVAKTHPKAKMVLRISTDDSLARCRLSVKFGAKVEDCRFILEQAKKLNIDVTGVSFHVGSGSTDASTFAQAISDSRFVFDMGTELGFNMHILDIGGGFPGTRDAPLKFEEIAGVINNALEKHFPPDLKLTIVAEPGRYYVASAFTLAVNVIAKKVTPGVQTDVGAHAESNAQSFMYYVNDGVYGSFNCILYDHAVVRPLPQREPIPNEKLYPSSVWGPTCDGLDQIVERYYLPEMQVGEWLLFEDMGAYTVVGTSSFNGFQSPTIYYVVSGLPDHVVRELKSQKS
[2]
  binding: binds
